# Assay results published in PubChem BioAssay AID2551 (National Center for Advancing Translational Sciences (NCATS), 2010).
# Amino acid sequences for entries named in this document (tags omitted). A change or cut given only in a name is not applied to a line headed by its entry.
# UniProt P51450: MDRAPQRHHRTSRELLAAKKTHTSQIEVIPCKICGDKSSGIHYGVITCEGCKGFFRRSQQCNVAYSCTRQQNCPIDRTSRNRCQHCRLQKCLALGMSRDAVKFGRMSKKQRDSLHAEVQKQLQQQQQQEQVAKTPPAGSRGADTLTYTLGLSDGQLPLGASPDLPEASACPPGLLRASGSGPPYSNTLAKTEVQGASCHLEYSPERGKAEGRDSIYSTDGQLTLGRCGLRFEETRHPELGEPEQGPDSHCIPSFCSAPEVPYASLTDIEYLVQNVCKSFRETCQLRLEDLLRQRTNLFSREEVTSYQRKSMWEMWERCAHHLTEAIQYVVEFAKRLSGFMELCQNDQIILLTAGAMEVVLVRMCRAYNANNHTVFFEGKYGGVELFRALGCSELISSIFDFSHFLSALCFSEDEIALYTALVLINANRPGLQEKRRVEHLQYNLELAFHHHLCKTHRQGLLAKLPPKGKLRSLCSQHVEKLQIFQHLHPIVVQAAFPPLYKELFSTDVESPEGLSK
# Among all 310,000 compounds or so, about 17,000 (5.5%) were called active. The shares of active, inactive and inconclusive entries below differ from those in the screen. Calls come from the whole dose curve; as a rule, active = well fitted inhibition curve with a large enough effect; inconclusive = small, poorly fitted or top-dose-only effect, or effect the other way; inactive = no such curve, though single readings can be large or run the other way. Potencies of inconclusive entries are doubtful fits and often do not repeat.
# Molecular target: Nuclear receptor ROR-gamma (Mus musculus) (UniProt P51450)
# Experiment: qHTS for inhibitors of ROR gamma transcriptional activity; note: nearly all actives have a fitted effect of over 60% in size
# Conditions: Drosophila S2 Gal4-RORgamma UAS-luciferase reporter, 20 h; activity change, negative = inhibition: at 53.6 µM (top of the series)
# Summary of the method: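 Schneider cells (Drosophila), stable Gal4 DBD–ROR gamma + UAS-luc; 1 hr cmpd preincubation; Cu2+ induction 700 uM final; 20 hr ambient; luminescence.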
# % is set by controls: 0 for no effect and ±100 for the full control effect; potency is the fitted concentration of half-maximal effect.
Structure (SMILES),Potency,"activity change, negative = inhibition"
CCN(CC)S(=O)(=O)c1cccc(-c2n[nH]c(=S)n2C(C)COC)c1 (stereo not drawn),"inconclusive: 11.2 µM [inhibitor, partial curve]",–
Cc1ccc(NC(=S)NN(C)c2nc(C)cnc2C)cc1,"inconclusive: 31.6 µM [inhibitor, single point]",–
COC(=O)NNC(=S)Nc1cc(OC)ccc1OC,"inconclusive: 7.08 µM [inhibitor, partial curve]",–
CC(=O)c1c(C)[nH]c(C(=O)OCC(=O)Nc2cc(S(=O)(=O)N3CCCCC3)ccc2C)c1C,"inconclusive: 12.6 µM [activator, partial curve]",–
Nc1cccc(-c2nc3ncccc3o2)c1,"inconclusive: 11.2 µM [activator, single point]",–
COc1ccc(-c2cc(-c3cc(OC)ccc3O)[nH]n2)cc1,"inconclusive: 14.1 µM [inhibitor, single point]",–
Cc1ccc2c(c1)N(CC(=O)NCCCN1CCN(C)CC1)C(=O)CO2,–,inactive: 0.332%
Cn1c(=O)c(=O)n(C)c2cc(S(=O)(=O)N3CCc4ccccc43)ccc21,"inconclusive: 15.8 µM [activator, single point]",–
COCc1cc(C)n(CC(=O)NCc2ccccc2)c(=O)c1C#N,–,inactive: 3.53%
Cc1nnc(NC(=O)c2cc3ccccc3o2)s1,"inconclusive: 17.8 µM [inhibitor, single point]",–
CC(C)c1ccc(/C=C/C2=NNC(=O)CC2)cc1,"inconclusive: 0.891 µM [activator, full curve, poor fit]",–
CC1=NN(c2ccccc2)C(=O)C1N=Nc1cccc(O)c1 (stereo not drawn),"inconclusive: 17.8 µM [inhibitor, single point]",–
O=C(Nc1cccc2ccccc12)c1ccc(OC(=S)N2CCOCC2)cc1,–,inactive: -28.3%
COc1ccc(/C=C/C(=O)c2cccs2)cc1OC,"inconclusive: 35.5 µM [inhibitor, single point]",–
Cc1ccc(-n2nnc3c(=O)oc4ccccc4c32)cc1,"inconclusive: 35.5 µM [inhibitor, single point]",–
Cc1ccc(S(=O)(=O)N(C)C)cc1NC(=S)NC12CC3CC(CC(C3)C1)C2,active: 5.01 µM,–
CCCCNC(=S)NNC(=O)c1c(Cl)c(C)nn1C,active: 1.41 µM,–
CCOC(=O)N1CCN(CCC(=O)c2ccc(Br)cc2)CC1,"inconclusive: 35.5 µM [inhibitor, single point]",–
Cc1ccc([C@@H]2[C@@H]3C(=O)N(C)C(=O)[C@@H]3[C@]3(C)C(=O)N(Cc4ccccc4)CC(=O)N23)o1,"inconclusive: 17.8 µM [inhibitor, single point]",–
O=C(O)COc1ccc(/C=C/C(=O)c2ccc(C3CCCCC3)cc2)cc1,"inconclusive: 35.5 µM [inhibitor, single point]",–
COCCN(C(=O)CSc1nnc(C)n1-c1ccccc1)c1c(N)n(Cc2ccccc2)c(=O)[nH]c1=O,–,inactive: -3.52%
COc1ccccc1-c1coc2cc(O)cc(O)c2c1=O,"inconclusive: 6.31 µM [inhibitor, single point]",–
COc1ccc2cc(C#N)c(N3CCOCC3)nc2c1,–,inactive: 30.8%

# Among those listed so far, these have a furan ring, fused or not.
Structure (SMILES),Potency,"activity change, negative = inhibition"
Cc1nnc(NC(=O)c2cc3ccccc3o2)s1,"inconclusive: 17.8 µM [inhibitor, single point]",–
Cc1ccc([C@@H]2[C@@H]3C(=O)N(C)C(=O)[C@@H]3[C@]3(C)C(=O)N(Cc4ccccc4)CC(=O)N23)o1,"inconclusive: 17.8 µM [inhibitor, single point]",–

# (listing goes on)

Structure (SMILES),Potency,"activity change, negative = inhibition"
C/C(=N\NC(=O)c1ccc([N+](=O)[O-])c(C)c1)c1ccccc1Cl,active: 7.94 µM,–
O=S(=O)(NCC1CCN(c2ccc(S(=O)(=O)N3CCOCC3)cc2)CC1)c1ccc(F)cc1,"inconclusive: 12.6 µM [activator, partial curve]",–
COc1cccc(/C=N/NC(=S)NCc2ccco2)c1OC,active: 3.55 µM,–
Cc1ccc(-n2nnnc2SCC(=O)N2CCc3ccccc3C2)cc1,"inconclusive: 5.01 µM [activator, full curve]",–
Cc1ccc(C(=O)NCCN2CCOCC2)cc1,"inconclusive: 5.62 µM [activator, single point]",–
CCN(Cc1ccccc1)S(=O)(=O)c1ccc(C(=O)N(CCCN(C)C)c2nc3cc4c(cc3s2)OCO4)cc1,"inconclusive: 22.4 µM [inhibitor, single point]",–
O=C(CN1CCN(Cc2ccc(F)cc2)CC1)NCc1ccccc1,–,inactive: -9.49%
CC(C)Cn1c([N+](=O)[O-])nc2c1c(=O)[nH]c(=O)n2C,active: 8.91 µM,–
O=C(C1CC1)N1CCc2cc(S(=O)(=O)NCCC3=CCCCC3)ccc21,"inconclusive: 12.6 µM [activator, partial curve]",–
Cc1ccc(-c2n[nH]c3c2CCC3)cc1,–,inactive: 0%
Cc1cc(C(=O)CCl)c(C)n1CCc1ccc(Cl)cc1,active: 12.6 µM,–
COc1ccccc1C(=O)Nc1ccnn1C1CCN(CCCc2ccccc2)CC1,–,inactive: 0.0309%
CCc1ccc2c(c1)c1nc(C)sc1n2CC,active: 10 µM,–
CCN(CC)c1ccc(/C=N/NC(=O)c2cnccn2)c(O)c1,active: 1.58 µM,–
NC(=O)CC(NC(=O)Cc1ccc(Br)cc1)c1ccc(NC2CC3CCC2C3)c([N+](=O)[O-])c1 (stereo not drawn),"inconclusive: 22.4 µM [activator, single point]",–
CCCN1C(=O)SC(CC(=O)Nc2ccccc2C)C1=O (stereo not drawn),"inconclusive: 3.55 µM [activator, single point]",–
COc1ccc(-c2nnc(SCC(C)C)o2)cc1,–,inactive: -41.8%
COc1ccc(Nc2ncnc3sccc23)cc1OC,–,inactive: -5.8%
CCN1c2ccccc2-c2nc3ccccc3n2C1c1ccncc1 (stereo not drawn),–,inactive: -1.11%
CCCc1cc(N2CCCC2)n2nc(C)c(-c3ccccc3)c2n1,"inconclusive: 14.1 µM [inhibitor, single point]",–
COc1ccc(Cc2nc(-c3ccc(-n4cccc4)cc3)no2)cc1OC,"inconclusive: 28.2 µM [inhibitor, single point]",–
CCn1c(=NC(=O)c2ccco2)sc2cccc(F)c21,"inconclusive: 0.158 µM [activator, partial curve, poor fit]",–
Cc1nc2scc(-c3ccccc3)c2c(=O)n1/N=C/c1ccco1,–,inactive: -0.279%
COc1ccc(-c2nc(NC(=O)Cn3cnnn3)sc2C)cc1,"inconclusive: 12.6 µM [activator, single point]",–
